# Data: the supplement of paper PMC12823440, “Inhibitors supercharge kinase turnover through native proteolytic circuits” (Nature, 2025)
# Chains of the proteins cited; added tags and fusions are not shown. Lines headed by an entry give the natural chain unless they say otherwise; changes in a name come on top.
# UniProt Q15208: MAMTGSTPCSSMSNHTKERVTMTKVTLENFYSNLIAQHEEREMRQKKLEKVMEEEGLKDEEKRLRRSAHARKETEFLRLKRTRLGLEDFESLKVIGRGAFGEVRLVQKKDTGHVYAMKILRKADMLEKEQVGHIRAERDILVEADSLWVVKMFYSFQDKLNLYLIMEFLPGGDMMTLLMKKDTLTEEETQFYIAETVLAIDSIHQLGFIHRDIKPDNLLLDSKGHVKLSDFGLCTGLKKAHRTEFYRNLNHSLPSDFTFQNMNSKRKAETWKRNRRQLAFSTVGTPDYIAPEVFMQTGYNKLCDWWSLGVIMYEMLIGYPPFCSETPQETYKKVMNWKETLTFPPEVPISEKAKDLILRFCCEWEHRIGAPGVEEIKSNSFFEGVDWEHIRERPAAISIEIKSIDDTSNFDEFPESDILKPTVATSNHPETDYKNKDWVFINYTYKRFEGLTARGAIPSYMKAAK
# UniProt P42680: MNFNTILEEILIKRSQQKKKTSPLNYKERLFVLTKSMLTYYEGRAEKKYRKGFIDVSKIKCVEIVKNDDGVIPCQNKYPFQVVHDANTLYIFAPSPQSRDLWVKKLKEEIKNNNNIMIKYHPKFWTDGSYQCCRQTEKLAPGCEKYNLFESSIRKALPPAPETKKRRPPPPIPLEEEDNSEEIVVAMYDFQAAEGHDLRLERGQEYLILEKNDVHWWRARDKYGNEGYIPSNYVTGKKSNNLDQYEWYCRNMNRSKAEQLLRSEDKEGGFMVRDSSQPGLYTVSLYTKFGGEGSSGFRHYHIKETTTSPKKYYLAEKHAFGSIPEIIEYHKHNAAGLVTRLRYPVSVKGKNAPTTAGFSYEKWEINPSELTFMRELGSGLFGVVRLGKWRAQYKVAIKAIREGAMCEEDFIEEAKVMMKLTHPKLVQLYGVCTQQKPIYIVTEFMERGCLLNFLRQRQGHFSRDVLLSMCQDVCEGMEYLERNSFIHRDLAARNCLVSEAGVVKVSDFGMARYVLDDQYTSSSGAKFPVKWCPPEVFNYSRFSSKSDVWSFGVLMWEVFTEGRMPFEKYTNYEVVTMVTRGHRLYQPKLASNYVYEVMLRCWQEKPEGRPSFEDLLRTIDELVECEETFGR
# UniProt P29597: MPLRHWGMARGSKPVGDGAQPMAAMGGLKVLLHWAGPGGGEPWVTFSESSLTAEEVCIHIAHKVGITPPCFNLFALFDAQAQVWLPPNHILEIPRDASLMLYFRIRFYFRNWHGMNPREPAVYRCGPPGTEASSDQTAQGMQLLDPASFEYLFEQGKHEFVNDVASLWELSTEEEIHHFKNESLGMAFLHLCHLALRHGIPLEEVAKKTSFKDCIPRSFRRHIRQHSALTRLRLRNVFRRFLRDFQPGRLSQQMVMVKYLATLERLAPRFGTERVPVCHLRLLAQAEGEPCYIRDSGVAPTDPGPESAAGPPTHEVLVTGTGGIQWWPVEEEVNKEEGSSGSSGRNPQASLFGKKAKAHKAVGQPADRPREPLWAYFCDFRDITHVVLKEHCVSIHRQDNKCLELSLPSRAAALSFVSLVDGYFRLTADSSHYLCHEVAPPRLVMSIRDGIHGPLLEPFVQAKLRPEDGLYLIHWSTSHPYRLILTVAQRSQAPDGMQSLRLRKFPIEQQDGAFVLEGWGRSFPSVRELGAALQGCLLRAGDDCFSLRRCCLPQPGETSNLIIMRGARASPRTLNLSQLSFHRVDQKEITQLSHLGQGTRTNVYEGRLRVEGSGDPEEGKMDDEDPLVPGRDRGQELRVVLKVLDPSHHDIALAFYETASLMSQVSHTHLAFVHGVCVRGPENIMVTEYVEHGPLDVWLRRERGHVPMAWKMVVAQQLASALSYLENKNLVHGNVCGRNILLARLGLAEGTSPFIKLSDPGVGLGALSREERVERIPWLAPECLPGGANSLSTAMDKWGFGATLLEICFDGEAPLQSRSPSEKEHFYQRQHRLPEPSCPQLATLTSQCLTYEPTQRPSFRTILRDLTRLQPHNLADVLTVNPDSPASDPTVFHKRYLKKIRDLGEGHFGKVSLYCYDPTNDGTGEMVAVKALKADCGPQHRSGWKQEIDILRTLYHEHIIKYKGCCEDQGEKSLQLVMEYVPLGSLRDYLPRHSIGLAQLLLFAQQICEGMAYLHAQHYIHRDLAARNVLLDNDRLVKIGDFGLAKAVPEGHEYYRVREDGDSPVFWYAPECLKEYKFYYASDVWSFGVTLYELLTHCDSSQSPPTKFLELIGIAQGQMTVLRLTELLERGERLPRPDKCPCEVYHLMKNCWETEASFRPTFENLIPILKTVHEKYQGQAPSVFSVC
# UniProt Q6PHR2: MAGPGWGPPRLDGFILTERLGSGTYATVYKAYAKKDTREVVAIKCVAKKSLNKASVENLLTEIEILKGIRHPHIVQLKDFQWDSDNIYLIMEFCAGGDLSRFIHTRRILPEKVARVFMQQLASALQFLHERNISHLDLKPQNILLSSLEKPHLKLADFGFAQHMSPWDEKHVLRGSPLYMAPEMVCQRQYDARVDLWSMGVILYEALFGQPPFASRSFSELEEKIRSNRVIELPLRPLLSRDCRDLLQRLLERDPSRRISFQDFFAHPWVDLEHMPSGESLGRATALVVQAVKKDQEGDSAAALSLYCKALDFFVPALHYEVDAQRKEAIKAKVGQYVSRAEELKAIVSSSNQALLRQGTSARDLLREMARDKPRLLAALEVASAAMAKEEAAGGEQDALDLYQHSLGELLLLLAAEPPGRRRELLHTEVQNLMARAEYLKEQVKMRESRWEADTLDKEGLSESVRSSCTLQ
# UniProt P07947, whole entry, looked up: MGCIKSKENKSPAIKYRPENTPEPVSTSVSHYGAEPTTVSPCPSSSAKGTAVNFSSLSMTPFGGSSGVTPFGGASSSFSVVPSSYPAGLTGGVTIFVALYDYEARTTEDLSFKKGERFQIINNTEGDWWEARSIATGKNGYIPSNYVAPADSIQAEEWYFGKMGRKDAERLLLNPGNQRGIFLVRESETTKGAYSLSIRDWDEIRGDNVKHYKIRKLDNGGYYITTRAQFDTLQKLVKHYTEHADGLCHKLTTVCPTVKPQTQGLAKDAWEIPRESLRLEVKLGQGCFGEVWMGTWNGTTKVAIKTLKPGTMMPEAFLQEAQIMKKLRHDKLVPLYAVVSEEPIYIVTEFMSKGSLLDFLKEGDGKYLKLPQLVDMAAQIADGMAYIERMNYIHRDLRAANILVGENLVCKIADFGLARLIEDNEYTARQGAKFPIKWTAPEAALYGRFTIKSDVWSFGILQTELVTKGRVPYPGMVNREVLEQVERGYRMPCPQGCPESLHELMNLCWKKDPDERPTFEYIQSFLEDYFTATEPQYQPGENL
# UniProt P43403: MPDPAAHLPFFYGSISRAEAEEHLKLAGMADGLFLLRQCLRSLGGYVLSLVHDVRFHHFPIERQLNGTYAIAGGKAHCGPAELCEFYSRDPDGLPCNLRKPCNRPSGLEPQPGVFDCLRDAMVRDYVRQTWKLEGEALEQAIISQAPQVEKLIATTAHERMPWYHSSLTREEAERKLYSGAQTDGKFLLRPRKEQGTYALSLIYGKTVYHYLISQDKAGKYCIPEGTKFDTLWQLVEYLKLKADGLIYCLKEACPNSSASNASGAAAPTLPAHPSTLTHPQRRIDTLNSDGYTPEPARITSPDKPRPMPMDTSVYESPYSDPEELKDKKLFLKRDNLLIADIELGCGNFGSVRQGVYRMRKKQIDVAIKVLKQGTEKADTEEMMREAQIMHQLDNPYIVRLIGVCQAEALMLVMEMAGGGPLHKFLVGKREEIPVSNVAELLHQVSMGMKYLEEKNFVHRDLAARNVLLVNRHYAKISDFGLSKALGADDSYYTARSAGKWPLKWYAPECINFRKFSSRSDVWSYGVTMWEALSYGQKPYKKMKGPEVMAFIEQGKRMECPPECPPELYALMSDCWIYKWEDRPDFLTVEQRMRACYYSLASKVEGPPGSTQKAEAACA
# UniProt P11802: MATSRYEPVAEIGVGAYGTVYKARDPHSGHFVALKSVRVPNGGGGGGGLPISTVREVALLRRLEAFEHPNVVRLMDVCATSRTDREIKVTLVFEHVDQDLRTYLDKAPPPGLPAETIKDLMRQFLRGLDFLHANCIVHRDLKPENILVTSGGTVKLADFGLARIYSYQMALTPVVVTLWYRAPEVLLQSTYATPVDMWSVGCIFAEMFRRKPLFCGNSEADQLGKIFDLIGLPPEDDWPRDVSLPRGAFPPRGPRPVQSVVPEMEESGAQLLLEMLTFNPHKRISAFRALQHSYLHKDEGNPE
# UniProt P50613: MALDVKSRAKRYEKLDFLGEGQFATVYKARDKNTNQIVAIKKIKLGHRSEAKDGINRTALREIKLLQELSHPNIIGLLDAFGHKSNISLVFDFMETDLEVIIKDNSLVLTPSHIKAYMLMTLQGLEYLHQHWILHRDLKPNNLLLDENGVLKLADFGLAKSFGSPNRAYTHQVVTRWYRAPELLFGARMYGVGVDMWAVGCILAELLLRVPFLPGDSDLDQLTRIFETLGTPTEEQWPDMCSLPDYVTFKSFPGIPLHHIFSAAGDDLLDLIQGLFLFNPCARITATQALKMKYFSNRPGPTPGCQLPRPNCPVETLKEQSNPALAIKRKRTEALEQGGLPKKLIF
# UniProt P50750, whole entry: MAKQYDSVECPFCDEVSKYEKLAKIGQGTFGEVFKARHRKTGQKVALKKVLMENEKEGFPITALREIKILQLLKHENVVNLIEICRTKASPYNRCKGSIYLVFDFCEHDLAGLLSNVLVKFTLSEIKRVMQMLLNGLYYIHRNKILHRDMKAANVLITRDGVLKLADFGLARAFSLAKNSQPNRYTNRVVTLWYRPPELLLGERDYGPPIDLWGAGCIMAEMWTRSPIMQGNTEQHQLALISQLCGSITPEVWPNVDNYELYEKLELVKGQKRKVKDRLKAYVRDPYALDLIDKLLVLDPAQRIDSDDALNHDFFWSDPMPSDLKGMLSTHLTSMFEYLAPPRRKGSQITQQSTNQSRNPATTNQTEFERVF
# Structures can show the parent of a compound that is named as a salt. This is one part of the list. Hit calls seldom repeat between salt and free forms of one compound.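 Kinases were expressed as nanoluciferase fusions in K562 cells and luminescence was read every 4 h between 2 and 18 h as percent of control, DMSO set to 100% and a positive control to 0%. A time point counts as decreased when the signal drops significantly (2 sigma). The hit call is the authors' own, does not follow from the count of time points alone, and its rule is not shown.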
# How the values were obtained:
# Conditions in all cases: K562, 2-18 h
# [1] = target: STK38 (UniProt Q15208); test: kinase-Nluc reporter destabilization hit call (1 = scored as downregulated) (binary); higher = compound decreases kinase abundance
# [2] = target: SYK (UniProt P43405); test: as above
# [3] = target: TEC (UniProt P42680); test: as above
# [4] = target: TYK2 (UniProt P29597); test: as above
# [5] = target: ULK3 (UniProt Q6PHR2); test: as above
# [6] = target: YES1 (UniProt P07947); test: as above
# [7] = target: ZAK (UniProt Q9NYL2); test: as above
# [8] = target: ZAP70 (UniProt P43403); test: as above
# [9] = target: CDK4 (UniProt P11802); test: number of time points (of 4; 2 h point missing) at which kinase-Nluc abundance scored as decreased, DMSO-normalised (count); higher = more persistent destabilization
# [10] = target: CDK7 (UniProt P50613); test: as above
# [11] = target: CDK9 (UniProt P50750); test: as above
structure (smiles),measurement,setting,value
Cn1cc(-c2cnc3ccc4ccc(CS(=O)(=O)NCc5ccccn5)cc4c(=O)c3c2)cn1,kinase-Nluc reporter destabilization hit call,[1]; 10 µM,inactive: 0
same,kinase-Nluc reporter destabilization hit call,[2]; 10 µM,inactive: 0
same,kinase-Nluc reporter destabilization hit call,[3]; 10 µM,inactive: 0
same,kinase-Nluc reporter destabilization hit call,[4]; 10 µM,inactive: 0
same,kinase-Nluc reporter destabilization hit call,[5]; 10 µM,inactive: 0
same,kinase-Nluc reporter destabilization hit call,[6]; 10 µM,inactive: 0
same,kinase-Nluc reporter destabilization hit call,[7]; 10 µM,inactive: 0
same,kinase-Nluc reporter destabilization hit call,[8]; 10 µM,inactive: 0
same,number of time points,[9]; 10 µM,0
same,number of time points,[10]; 10 µM,0
same,number of time points,[11]; 10 µM,0
Cc1ccc(NC(=O)c2ccc(CN3CCN(C)CC3)cc2)cc1Nc1nc(-c2cccnc2)cs1 [Masitinib],kinase-Nluc reporter destabilization hit call,[1]; 2.5 µM,inactive: 0
same,kinase-Nluc reporter destabilization hit call,[2]; 2.5 µM,inactive: 0
same,kinase-Nluc reporter destabilization hit call,[3]; 2.5 µM,inactive: 0
same,kinase-Nluc reporter destabilization hit call,[4]; 2.5 µM,inactive: 0
same,kinase-Nluc reporter destabilization hit call,[5]; 2.5 µM,inactive: 0
same,kinase-Nluc reporter destabilization hit call,[6]; 2.5 µM,inactive: 0
same,kinase-Nluc reporter destabilization hit call,[7]; 2.5 µM,inactive: 0
same,kinase-Nluc reporter destabilization hit call,[8]; 2.5 µM,inactive: 0
same,number of time points,[9]; 2.5 µM,0
same,number of time points,[10]; 2.5 µM,3
same,number of time points,[11]; 2.5 µM,0
O=C1Nc2ccccc2/C1=C/c1ccccn1 [GSK-3β inhibitor 1],kinase-Nluc reporter destabilization hit call,[1]; 10 µM,inactive: 0
same,kinase-Nluc reporter destabilization hit call,[2]; 10 µM,inactive: 0
same,kinase-Nluc reporter destabilization hit call,[3]; 10 µM,inactive: 0
same,kinase-Nluc reporter destabilization hit call,[4]; 10 µM,inactive: 0
same,kinase-Nluc reporter destabilization hit call,[5]; 10 µM,inactive: 0
same,kinase-Nluc reporter destabilization hit call,[6]; 10 µM,inactive: 0
same,kinase-Nluc reporter destabilization hit call,[7]; 10 µM,inactive: 0
same,kinase-Nluc reporter destabilization hit call,[8]; 10 µM,inactive: 0
same,number of time points,[9]; 10 µM,0
same,number of time points,[10]; 10 µM,1
same,number of time points,[11]; 10 µM,0
N#CCNC(=O)c1ccc(-c2ccnc(Nc3ccc(N4CCOCC4)cc3)n2)cc1 [Momelotinib sulfate],kinase-Nluc reporter destabilization hit call,[1]; 10 µM,inactive: 0
same,kinase-Nluc reporter destabilization hit call,[2]; 10 µM,inactive: 0
same,kinase-Nluc reporter destabilization hit call,[3]; 10 µM,inactive: 0
same,kinase-Nluc reporter destabilization hit call,[4]; 10 µM,inactive: 0
same,kinase-Nluc reporter destabilization hit call,[5]; 10 µM,inactive: 0
same,kinase-Nluc reporter destabilization hit call,[6]; 10 µM,inactive: 0
same,kinase-Nluc reporter destabilization hit call,[7]; 10 µM,inactive: 0
same,kinase-Nluc reporter destabilization hit call,[8]; 10 µM,inactive: 0
same,number of time points,[9]; 10 µM,0
same,number of time points,[10]; 10 µM,0
same,number of time points,[11]; 10 µM,0
CN1CCCN(C(=O)c2cccc(-c3ccc(/C=C4/C(=O)Nc5ccc(Cl)cc54)o3)c2)CC1 [CX-6258 (hydrochloride hydrate)],kinase-Nluc reporter destabilization hit call,[1]; 2.5 µM,inactive: 0
same,kinase-Nluc reporter destabilization hit call,[2]; 2.5 µM,inactive: 0
same,kinase-Nluc reporter destabilization hit call,[3]; 2.5 µM,inactive: 0
same,kinase-Nluc reporter destabilization hit call,[4]; 2.5 µM,inactive: 0
same,kinase-Nluc reporter destabilization hit call,[5]; 2.5 µM,inactive: 0
same,kinase-Nluc reporter destabilization hit call,[6]; 2.5 µM,inactive: 0
same,kinase-Nluc reporter destabilization hit call,[7]; 2.5 µM,inactive: 0
same,kinase-Nluc reporter destabilization hit call,[8]; 2.5 µM,inactive: 0
same,number of time points,[9]; 2.5 µM,0
same,number of time points,[10]; 2.5 µM,0
same,number of time points,[11]; 2.5 µM,0
C#Cc1cccc(Nc2ncnc3cc(OCCOC)c(OCCO)cc23)c1 [Desmethyl Erlotinib],kinase-Nluc reporter destabilization hit call,[1]; 10 µM,inactive: 0
same,kinase-Nluc reporter destabilization hit call,[2]; 10 µM,inactive: 0
same,kinase-Nluc reporter destabilization hit call,[3]; 10 µM,inactive: 0
same,kinase-Nluc reporter destabilization hit call,[4]; 10 µM,inactive: 0
same,kinase-Nluc reporter destabilization hit call,[5]; 10 µM,inactive: 0
same,kinase-Nluc reporter destabilization hit call,[6]; 10 µM,inactive: 0
same,kinase-Nluc reporter destabilization hit call,[7]; 10 µM,inactive: 0
same,kinase-Nluc reporter destabilization hit call,[8]; 10 µM,inactive: 0
same,number of time points,[9]; 10 µM,0
same,number of time points,[10]; 10 µM,0
same,number of time points,[11]; 10 µM,0
CS(=O)(=O)N1CCN(Cc2cc3nc(-c4cccc5[nH]ncc45)nc(N4CCOCC4)c3s2)CC1 [Pictilisib],kinase-Nluc reporter destabilization hit call,[1]; 10 µM,inactive: 0
same,kinase-Nluc reporter destabilization hit call,[2]; 10 µM,inactive: 0
same,kinase-Nluc reporter destabilization hit call,[3]; 10 µM,inactive: 0
same,kinase-Nluc reporter destabilization hit call,[4]; 10 µM,inactive: 0
same,kinase-Nluc reporter destabilization hit call,[5]; 10 µM,inactive: 0
same,kinase-Nluc reporter destabilization hit call,[6]; 10 µM,inactive: 0
same,kinase-Nluc reporter destabilization hit call,[7]; 10 µM,inactive: 0
same,kinase-Nluc reporter destabilization hit call,[8]; 10 µM,inactive: 0
same,number of time points,[9]; 10 µM,0
same,number of time points,[10]; 10 µM,0
same,number of time points,[11]; 10 µM,0
N#CCNC(=O)c1ccc(-c2ccnc(Nc3ccc(N4CCOCC4)cc3)n2)cc1 [Momelotinib],kinase-Nluc reporter destabilization hit call,[1]; 10 µM,inactive: 0
same,kinase-Nluc reporter destabilization hit call,[2]; 10 µM,inactive: 0
same,kinase-Nluc reporter destabilization hit call,[3]; 10 µM,inactive: 0
same,kinase-Nluc reporter destabilization hit call,[4]; 10 µM,inactive: 0
same,kinase-Nluc reporter destabilization hit call,[5]; 10 µM,inactive: 0
same,kinase-Nluc reporter destabilization hit call,[6]; 10 µM,inactive: 0
same,kinase-Nluc reporter destabilization hit call,[7]; 10 µM,inactive: 0
same,kinase-Nluc reporter destabilization hit call,[8]; 10 µM,inactive: 0
same,number of time points,[9]; 10 µM,0
same,number of time points,[10]; 10 µM,4
same,number of time points,[11]; 10 µM,0
CCCCCCCCc1ccc(CCC(N)(CO)CO)cc1 [Fingolimod],kinase-Nluc reporter destabilization hit call,[1]; 2.5 µM,inactive: 0
same,kinase-Nluc reporter destabilization hit call,[2]; 2.5 µM,inactive: 0
same,kinase-Nluc reporter destabilization hit call,[3]; 2.5 µM,inactive: 0
same,kinase-Nluc reporter destabilization hit call,[4]; 2.5 µM,inactive: 0
same,kinase-Nluc reporter destabilization hit call,[5]; 2.5 µM,inactive: 0
same,kinase-Nluc reporter destabilization hit call,[6]; 2.5 µM,inactive: 0
same,kinase-Nluc reporter destabilization hit call,[7]; 2.5 µM,inactive: 0
same,kinase-Nluc reporter destabilization hit call,[8]; 2.5 µM,inactive: 0
same,number of time points,[9]; 2.5 µM,0
same,number of time points,[10]; 2.5 µM,0
same,number of time points,[11]; 2.5 µM,0
CNC(=O)c1cc(Oc2ccc(NC(=O)Nc3ccc(Cl)c(C(F)(F)F)c3)c(F)c2)ccn1 [Regorafenib (monohydrate)],kinase-Nluc reporter destabilization hit call,[1]; 2.5 µM,inactive: 0
same,kinase-Nluc reporter destabilization hit call,[2]; 2.5 µM,inactive: 0
same,kinase-Nluc reporter destabilization hit call,[3]; 2.5 µM,inactive: 0
same,kinase-Nluc reporter destabilization hit call,[4]; 2.5 µM,inactive: 0
same,kinase-Nluc reporter destabilization hit call,[5]; 2.5 µM,inactive: 0
same,kinase-Nluc reporter destabilization hit call,[6]; 2.5 µM,inactive: 0
same,kinase-Nluc reporter destabilization hit call,[7]; 2.5 µM,inactive: 0
same,kinase-Nluc reporter destabilization hit call,[8]; 2.5 µM,inactive: 0
same,number of time points,[9]; 2.5 µM,0
same,number of time points,[10]; 2.5 µM,3
same,number of time points,[11]; 2.5 µM,0
CC(C)Nc1cc(-c2c[nH]c(C(=O)N[C@H](CO)c3cccc(Cl)c3)c2)c(Cl)cn1 [Ulixertinib (hydrochloride)],kinase-Nluc reporter destabilization hit call,[1]; 10 µM,inactive: 0
same,kinase-Nluc reporter destabilization hit call,[2]; 10 µM,inactive: 0
same,kinase-Nluc reporter destabilization hit call,[3]; 10 µM,inactive: 0
same,kinase-Nluc reporter destabilization hit call,[4]; 10 µM,inactive: 0
same,kinase-Nluc reporter destabilization hit call,[5]; 10 µM,inactive: 0
same,kinase-Nluc reporter destabilization hit call,[6]; 10 µM,inactive: 0
same,kinase-Nluc reporter destabilization hit call,[7]; 10 µM,inactive: 0
same,kinase-Nluc reporter destabilization hit call,[8]; 10 µM,inactive: 0
same,number of time points,[9]; 10 µM,0
same,number of time points,[10]; 10 µM,0
same,number of time points,[11]; 10 µM,0
CN1CCCN(C(=O)c2cccc(-c3ccc(/C=C4/C(=O)Nc5ccc(Cl)cc54)o3)c2)CC1,kinase-Nluc reporter destabilization hit call,[1]; 2.5 µM,inactive: 0
same,kinase-Nluc reporter destabilization hit call,[2]; 2.5 µM,inactive: 0
same,kinase-Nluc reporter destabilization hit call,[3]; 2.5 µM,inactive: 0
same,kinase-Nluc reporter destabilization hit call,[4]; 2.5 µM,inactive: 0
same,kinase-Nluc reporter destabilization hit call,[5]; 2.5 µM,inactive: 0
same,kinase-Nluc reporter destabilization hit call,[6]; 2.5 µM,inactive: 0
same,kinase-Nluc reporter destabilization hit call,[7]; 2.5 µM,inactive: 0
same,kinase-Nluc reporter destabilization hit call,[8]; 2.5 µM,inactive: 0
same,number of time points,[9]; 2.5 µM,0
same,number of time points,[10]; 2.5 µM,1
same,number of time points,[11]; 2.5 µM,0
CCCC(=O)Nc1ncnc2c1ncn2[C@@H]1O[C@@H]2COP(=O)(O)O[C@H]2[C@H]1OC(=O)CCC [Bucladesine (sodium)],kinase-Nluc reporter destabilization hit call,[1]; 10 µM,inactive: 0
same,kinase-Nluc reporter destabilization hit call,[2]; 10 µM,inactive: 0
same,kinase-Nluc reporter destabilization hit call,[3]; 10 µM,inactive: 0
same,kinase-Nluc reporter destabilization hit call,[4]; 10 µM,inactive: 0
same,kinase-Nluc reporter destabilization hit call,[5]; 10 µM,inactive: 0
same,kinase-Nluc reporter destabilization hit call,[6]; 10 µM,inactive: 0
same,kinase-Nluc reporter destabilization hit call,[7]; 10 µM,inactive: 0
same,kinase-Nluc reporter destabilization hit call,[8]; 10 µM,inactive: 0
same,number of time points,[9]; 10 µM,0
same,number of time points,[10]; 10 µM,0
same,number of time points,[11]; 10 µM,0
CCc1nc(C(N)=O)c(Nc2ccc(N3CCC(N4CCN(C)CC4)CC3)c(OC)c2)nc1NC1CCOCC1 [Gilteritinib],kinase-Nluc reporter destabilization hit call,[1]; 2 µM,inactive: 0
same,kinase-Nluc reporter destabilization hit call,[2]; 2 µM,inactive: 0
same,kinase-Nluc reporter destabilization hit call,[3]; 2 µM,inactive: 0
same,kinase-Nluc reporter destabilization hit call,[4]; 2 µM,inactive: 0
same,kinase-Nluc reporter destabilization hit call,[5]; 2 µM,inactive: 0
same,kinase-Nluc reporter destabilization hit call,[6]; 2 µM,inactive: 0
same,kinase-Nluc reporter destabilization hit call,[7]; 2 µM,inactive: 0
same,kinase-Nluc reporter destabilization hit call,[8]; 2 µM,inactive: 0
same,number of time points,[9]; 2 µM,0
same,number of time points,[10]; 2 µM,0
same,number of time points,[11]; 2 µM,0

# A second format for some results above:
structure (smiles) | measurement | setting | value
Cn1cc(-c2cnc3ccc4ccc(CS(=O)(=O)NCc5ccccn5)cc4c(=O)c3c2)cn1 | kinase-Nluc reporter destabilization hit call | [8]; 10 µM | inactive: 0
same | number of time points | [9]; 10 µM | 0
same | number of time points | [10]; 10 µM | 0
same | number of time points | [11]; 10 µM | 0
Cc1ccc(NC(=O)c2ccc(CN3CCN(C)CC3)cc2)cc1Nc1nc(-c2cccnc2)cs1 [Masitinib] | kinase-Nluc reporter destabilization hit call | [1]; 2.5 µM | inactive: 0
same | kinase-Nluc reporter destabilization hit call | [2]; 2.5 µM | inactive: 0
